Data as given in PubChem BioAssay AID504467 (National Center for Advancing Translational Sciences (NCATS), 2011).
About 7,700 (2.3%) of roughly 330,000 compounds were called active. This list was built around the results that the source calls inconclusive (neither active nor inactive); the mix of calls is not that of the screen. Calls follow the shape of the dose curve; as a rule, active = well fitted inhibition curve with a large enough effect; inconclusive = small, poorly fitted or top-dose-only effect, or effect the other way; inactive = flat fitted curve, though single readings scatter. A potency beside an inconclusive call is a rough fit, not a confirmed value.

assay: qHTS screen for small molecules that inhibit ELG1-dependent DNA repair in human embryonic kidney (HEK293T) cells expressing luciferase-tagged ELG1; settings: HEK293T ELG1-luciferase reporter, luminescence, 16 h, DNA damage induced by 5-fluorouridine; activity change, negative = inhibition: at 46.1 µM (top of the series); also: nearly all actives have a fitted effect of over 55% in size
Procedure, shortened: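 In this reporter screen, reduction of luminescence relative to DMSO vehicle indicated activity. Compounds and 5-fluorouridine were added together to 2,000 cells per well, incubated for 16 hr at 37 °C, then developed with ONE-Glo.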
% is scaled to controls: 0 for no effect and ±100 for the full control effect; potency is read from the fitted curve at half-maximal effect.

Compound | Potency | activity change, negative = inhibition
CN(C(=O)COC(=O)c1ccccc1SCC(=O)N1CCCC1)C1(C#N)CCCCC1 | inconclusive: 29.1 µM [activator, partial curve, poor fit] | –
O=C(CSc1nc2ccccc2o1)N/N=C/c1ccccc1 | inconclusive: 16.4 µM [activator, partial curve] | –
Cc1ccc(-c2cc(-c3ccc4c(c3)OCO4)c(C#N)c(N)n2)o1 | active: 20.6 µM | –
Cc1sc2ncnc(Sc3ccccc3C(=O)Nc3ccccc3Cl)c2c1C | inconclusive: 23.1 µM [inhibitor, partial curve, poor fit] | –
Cc1ccc(S(=O)(=O)c2c(C)c(C)c(C)[nH]c2=O)cc1 | – | inactive: 12.8%
Cc1cccc(Nc2nn3c(=O)c4ccccc4nc3s2)c1 | inconclusive: 2.31 µM [activator, full curve] | –
O=C(c1ccccc1)N1CCN=C1SCc1ccc([N+](=O)[O-])cc1 | – | inactive: -11.4%
Cc1cc(Cl)ccc1OCC(=O)NNC(=O)c1ccco1 | inconclusive: 25.9 µM [activator, single point] | –
CCOC(=O)C(=CNc1cc(C)nn1-c1ccc(Cl)cc1)C(=O)OCC | inconclusive: 23.1 µM [inhibitor, single point] | –
C[C@H]1CN=C(N(C)C)N1CCCC1CCCC1 | – | inactive: -3.4%
COC(=O)[C@@]1(Cc2ccccc2)[C@@H]2C(=CC(=O)[C@H]2CC(=O)C(=O)N(C)C)CN1C(=O)c1ccccc1 | active: 7.31 µM | –
N#CCNC1CC(=O)N(c2ccc(F)cc2)C1=O (stereo not drawn) | – | inactive: 6.49%
CC1=C(C(=O)OCc2ccccc2)C(c2cccc(Cl)c2Cl)NC(=O)N1CCCCCC(=O)O (stereo not drawn) | inconclusive: 0.116 µM [inhibitor, full curve, poor fit] | –
COc1ccccc1C(=O)Nc1nc2nc(-c3ccccc3)cc(=O)n2[nH]1 | inconclusive: 29.1 µM [activator, single point] | –
COCCCNC(=S)N1CCN(c2nc(-c3ccccc3)cs2)CC1 | inconclusive: 16.4 µM [inhibitor, partial curve] | –
Cc1ccc(S(=O)(=O)N2CCOC23CCN(S(=O)(=O)c2c(C)cc(C)cc2C)CC3)cc1 | inconclusive: 32.6 µM [inhibitor, single point] | –
C=CC[C@H](CC(=O)N[C@H](CO)Cc1ccccc1)C(=O)N[C@H](COC(=O)[C@H](CC=C)CC(=O)OC(C)(C)C)Cc1c[nH]c2ccccc12 | – | inactive: -16.3%
CCCCN(C)C(=O)C1CCC(CNS(=O)(=O)c2ccc3c(c2)CC(C)N3C(=O)C2CC2)CC1 (stereo not drawn) | inconclusive: 16.4 µM [inhibitor, partial curve, poor fit] | –
Cc1ccc2c(CNCc3ccccc3)cc(=O)oc2c1 | inconclusive: 5.17 µM [inhibitor, single point] | –
O=C(N/N=C/c1cc([N+](=O)[O-])ccc1O)/C(=C\c1cccs1)NC(=O)c1ccccc1 | inconclusive: 16.4 µM [inhibitor, partial curve] | –
Cc1cc(C)cc(NC(=O)[C@H](NC(=O)[C@@H]2Cc3ccccc3CN2)c2ccccc2)c1 | inconclusive: 32.6 µM [activator, partial curve, poor fit] | –
COC(=O)c1sccc1NC(=O)CSc1ccccc1NS(=O)(=O)c1ccc(Br)cc1 | – | inactive: -25.1%
O=C(c1ccc(CNS(=O)(=O)c2cccc(C(F)(F)F)c2)cc1)N1CCOCC1 | inconclusive: 20.6 µM [inhibitor, single point] | –

Compound | Potency | activity change, negative = inhibition
Cc1cc2nc(-c3ccc[nH]c3=O)[nH]c2cc1C | inconclusive: 0.366 µM [activator, partial curve] | –
Cc1ccc(-n2c(C)cc(C(=O)CSc3n[nH]c(N)n3)c2C)cc1 | inconclusive: 0.411 µM [activator, full curve, poor fit] | –
O=S(=O)(c1ccc(-c2ccon2)s1)N1CCOCC1 | – | inactive: 31.8%
CC(C)N(C(=O)[C@H]1CC(CC(=O)NC(C)(C)C)C(=O)N2CCc3c([nH]c4ccccc34)[C@]12C)C(C)C (stereo partly drawn) | – | inactive: -3.4%
C[C@H](CO)N1C[C@H](C)[C@@H](CN(C)Cc2ccc(C(=O)Nc3ccccc3N)cc2)Oc2c(NC(=O)C3CCCCC3)cccc2C1=O | inconclusive: 23.1 µM [inhibitor, single point] | –
COc1ccc(OCCC(=O)OCC(=O)NCc2ccccc2)cc1 | inconclusive: 20.6 µM [activator, single point] | –
O=C(Nc1ccc(-c2noc(CCc3ccccc3)n2)cc1)c1cccnc1 | active: 23.1 µM | –
COc1ccc(/C=N/N2C(=N)SCC2=O)cc1 | inconclusive: 14.6 µM [activator, partial curve] | –
COc1ccc(-c2ccc(SCC(=O)N3CCCC3)nn2)cc1OC | – | inactive: 0.126%
CC(C)CCN1CC(O)=C(c2nc3ccccc3[nH]2)C1=N | inconclusive: 6.51 µM [inhibitor, partial curve] | –
O=C(OCc1ccc(COC(=O)c2ccccn2)cc1)c1ccccn1 | – | inactive: 1.29%
O=C(O)Cc1ccc(Nc2cnn(C34CC5CC(CC(CC(=O)O)(C5)C3)C4)c(=O)c2Cl)cc1 | inconclusive: 25.9 µM [inhibitor, single point] | –
CS(=O)(=O)N(CC(=O)N1CCN(Cc2ccccc2)CC1)c1cccc(F)c1 | – | inactive: 1.86%
Cc1cc(-c2ccccc2)c2c(n1)sc1c(O)cc(=O)[nH]c12 | – | inactive: 6.42%
Cc1ccc(C(=O)NC2=NCCS2)cc1Cl | inconclusive: 7.3 µM [activator, partial curve] | –
CC(Sc1nnc(C(C)Oc2ccccc2F)o1)C(=O)NCc1ccc2c(c1)OCO2 (stereo not drawn) | inconclusive: 29.1 µM [inhibitor, single point] | –
O=C(COc1cccc([N+](=O)[O-])c1)NN1C(=O)c2ccccc2C1=O | – | inactive: 1.05%
O=C(N/N=C/c1ccc2ncccc2c1)c1ccco1 | inconclusive: 1.64 µM [activator, partial curve] | –
Cc1[nH]c2ccccc2c1/C=N/Nc1nc(Nc2ccc(F)cc2)nc(N2CCOCC2)n1 | active: 20.6 µM | –
CC1CN(S(=O)(=O)c2cccc(C(=O)NCc3ccccn3)c2)CC(C)O1 (stereo not drawn) | inconclusive: 29.1 µM [inhibitor, partial curve, poor fit] | –
CC(C)COc1ccc(C/C(N)=N/n2cnnc2)cc1 | inconclusive: 3.66 µM [inhibitor, full curve] | –
C/C(=N/OC(=O)c1ccc(C)cc1)c1ccc(N2C(=O)C3CCCCC3C2=O)cc1 (stereo not drawn) | – | inactive: 17.9%
Cc1ccc2nc(NCCNC(=O)c3ccccc3)c(C#N)cc2c1 | inconclusive: 25.9 µM [inhibitor, single point] | –

Sorted by molar mass (high to low): 16 of the compounds above
Compound | Potency | activity change, negative = inhibition
COC(=O)c1sccc1NC(=O)CSc1ccccc1NS(=O)(=O)c1ccc(Br)cc1 | – | inactive: -25.1%
CC1=C(C(=O)OCc2ccccc2)C(c2cccc(Cl)c2Cl)NC(=O)N1CCCCCC(=O)O (stereo not drawn) | inconclusive: 0.116 µM [inhibitor, full curve, poor fit] | –
CCCCN(C)C(=O)C1CCC(CNS(=O)(=O)c2ccc3c(c2)CC(C)N3C(=O)C2CC2)CC1 (stereo not drawn) | inconclusive: 16.4 µM [inhibitor, partial curve, poor fit] | –
Cc1[nH]c2ccccc2c1/C=N/Nc1nc(Nc2ccc(F)cc2)nc(N2CCOCC2)n1 | active: 20.6 µM | –
CN(C(=O)COC(=O)c1ccccc1SCC(=O)N1CCCC1)C1(C#N)CCCCC1 | inconclusive: 29.1 µM [activator, partial curve, poor fit] | –
O=C(c1ccc(CNS(=O)(=O)c2cccc(C(F)(F)F)c2)cc1)N1CCOCC1 | inconclusive: 20.6 µM [inhibitor, single point] | –
Cc1sc2ncnc(Sc3ccccc3C(=O)Nc3ccccc3Cl)c2c1C | inconclusive: 23.1 µM [inhibitor, partial curve, poor fit] | –
CS(=O)(=O)N(CC(=O)N1CCN(Cc2ccccc2)CC1)c1cccc(F)c1 | – | inactive: 1.86%
C/C(=N/OC(=O)c1ccc(C)cc1)c1ccc(N2C(=O)C3CCCCC3C2=O)cc1 (stereo not drawn) | – | inactive: 17.9%
CC1CN(S(=O)(=O)c2cccc(C(=O)NCc3ccccn3)c2)CC(C)O1 (stereo not drawn) | inconclusive: 29.1 µM [inhibitor, partial curve, poor fit] | –
CCOC(=O)C(=CNc1cc(C)nn1-c1ccc(Cl)cc1)C(=O)OCC | inconclusive: 23.1 µM [inhibitor, single point] | –
COc1ccc(OCCC(=O)OCC(=O)NCc2ccccc2)cc1 | inconclusive: 20.6 µM [activator, single point] | –
Cc1ccc(-n2c(C)cc(C(=O)CSc3n[nH]c(N)n3)c2C)cc1 | inconclusive: 0.411 µM [activator, full curve, poor fit] | –
Cc1ccc(-c2cc(-c3ccc4c(c3)OCO4)c(C#N)c(N)n2)o1 | active: 20.6 µM | –
CC(C)CCN1CC(O)=C(c2nc3ccccc3[nH]2)C1=N | inconclusive: 6.51 µM [inhibitor, partial curve] | –
C[C@H]1CN=C(N(C)C)N1CCCC1CCCC1 | – | inactive: -3.4%

Later entries

Compound | Potency | activity change, negative = inhibition
Nc1[nH]ncc1N=Nc1ccc(Cl)cc1 | inconclusive: 16.4 µM [activator, partial curve] | –
CC(C)[C@@H](C(=O)N1CCCC1)N1C(=O)N2CCc3c([nH]c4ccccc34)[C@@]2(C)C1=O | – | inactive: -13.7%
CCC(=O)N(Cc1cc2cc(OC)ccc2[nH]c1=O)c1ccc(C)cc1C | – | inactive: 18.7%
COc1cc(OC)c(N(C)S(=O)(=O)c2cccc(C(=O)OCC(=O)N3CCOCC3)c2)cc1Cl | inconclusive: 23.1 µM [inhibitor, partial curve] | –
COc1cc2c(cc1NC(=O)CSc1cccc[n+]1[O-])oc1ccccc12 | – | inactive: 26%
CCOc1ccc(-n2nc3ccc(NC(=O)CC)cc3n2)cc1 | inconclusive: 7.3 µM [activator, partial curve] | –
CCn1c(SCC(=O)N2CCCC2)nnc1-c1ccc(S(=O)(=O)N2CCCCCC2)cc1 | inconclusive: 14.6 µM [inhibitor, partial curve] | –
O=C(O)CCn1cc(/C=C\C(=O)c2ccc(Cl)cc2)c(-c2cccc(Br)c2)n1 | – | inactive: -13.6%
O=c1[nH]nc(CNc2cccc(C(F)(F)F)c2)c2ccccc12 | inconclusive: 8.2 µM [inhibitor, partial curve] | –
Cc1n[nH]c(C)c1S(=O)(=O)N1CCCC(C(=O)Nc2ccc(Br)cc2)C1 (stereo not drawn) | inconclusive: 20.6 µM [inhibitor, partial curve, poor fit] | –
CSc1ncc(F)c(N(CCO)CCO)n1 | inconclusive: 10.3 µM [inhibitor, partial curve] | –
O=C(CCCn1c(=S)[nH]c2cc3c(cc2c1=O)OCO3)N1CCN(c2ccccc2F)CC1 | active: 23.1 µM | –
COC(=O)c1[nH]c2ccc(Br)cc2c1NC(=O)CN1CCCc2ccccc21 | active: 8.2 µM | –
Cc1c(C(=O)NCc2ccco2)oc2ccc(S(=O)(=O)N3CCC4(CC3)OCCO4)cc12 | active: 3.26 µM | –
CN(c1ccccc1)S(=O)(=O)c1cccc(NC(=O)CSc2ncn[nH]2)c1 | inconclusive: 7.31 µM [inhibitor, partial curve, poor fit] | –
O=C1c2ccccc2-c2onc3ccc(NCCCn4ccnc4)c1c23 | inconclusive: 9.2 µM [inhibitor, partial curve] | –
Nc1ccc2nc3c(=O)n(CCc4ccccc4)c(=O)[nH]c3nc2c1 | inconclusive: 0.366 µM [inhibitor, partial curve, poor fit] | –
COc1ccc(-c2csc(N(Cc3ccccc3)C(=O)COc3ccc(Cl)cc3)n2)cc1 | inconclusive: 16.4 µM [activator, single point] | –
Cc1ccc(/C=N/NC(=O)Cc2ccc(O)cc2)s1 | – | inactive: 24%
O=C(Nc1ccccc1C(=O)NC1CC1)c1ccc([N+](=O)[O-])o1 | inconclusive: 14.6 µM [inhibitor, partial curve, poor fit] | –
Cc1nn(C)cc1C(C(=O)NC1CCCCC1)N(C(=O)Cc1cccs1)c1ccc(Cl)cc1 (stereo not drawn) | – | inactive: -27.8%
N#Cc1c(/N=C\c2ccc(O)c([N+](=O)[O-])c2)sc2c1CCCC2 | – | inactive: 5.34%
